Laboratory results: PubChem BioAssay AID504834 (National Center for Advancing Translational Sciences (NCATS), 2011)
In all, about 320,000 compounds went through this assay and about 22,000 (6.9%) were called active. The inconclusive results got no clear call from the source; some entries with a clear call stand among them for comparison. Calls come from the whole dose curve; as a rule, active = well fitted inhibition curve with a large enough effect; inconclusive = small, poorly fitted or top-dose-only effect, or another doubt; inactive = no such curve, though single readings can be large or run the other way. Potencies of inconclusive entries are doubtful fits and often do not repeat.

assay: Primary qHTS for delayed death inhibitors of the malarial parasite plastid, 96 hour incubation; conditions: P. falciparum luciferase reporter growth; series mostly up to 28.7 µM; activity change, negative = inhibition: at the top concentration
Method in brief: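 Two-generation exposure (96 h) targets delayed-death phenotype. Reporter parasites carrying integrated firefly luciferase, in red cells at 2% hematocrit and 0.05% parasitemia final, kept at 37 C, 5% CO2; luminescence loss indicates inhibition.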
% is set by controls: 0 for no effect and ±100 for the full control effect; potency is the fitted concentration of half-maximal effect.

With `Cc1cccc(C(=O)O/N=C(\N)Cc2ccc([N+](=O)[O-])cc2)c1` as the compound, how does the Potency read?
The Potency was inconclusive: 13.1 µM [inhibitor, single point].

With `COc1ccc(NC(=O)COc2ccc(S(=O)(=O)N3CCOCC3)cc2C)cc1OC` as the compound, how does the Potency read?
The Potency was inconclusive: 18.5 µM [inhibitor, single point].

Which Potency does the source give for `CCn1c(SCC(=O)NC2CCCCC2)nnc1C(CO)NC(=O)c1ccccc1` (stereo unspecified) here?
The Potency was inconclusive: 18.5 µM [inhibitor, single point].

Which Potency does the source give for `CC(=O)N1CC(C)Oc2ccc(S(=O)(=O)NC(CC(=O)O)c3ccccc3)cc21` (stereo unspecified) here?
The Potency was inconclusive: 18.5 µM [inhibitor, single point].

For `CC(=O)Nc1ccc(-c2csc(NC(=O)c3ccc(C)o3)n2)cc1`, which Potency is on record?
Its Potency is active: 9.28 µM.

Which Potency does the source give for `OCCCn1c(CCCNc2nc(-c3cccc(Br)c3)cs2)nc2cc(Cl)c(N3CCCCC3)cc21` here?
Its Potency is inconclusive: 11.7 µM [inhibitor, single point].

Which “activity change, negative = inhibition” value does the source give for `COc1ccccc1C(=O)C1CCCN(C(=O)c2snnc2C)C1` (stereo unspecified) here?
The value was inactive: -15.4%.

With `CCc1cccc(NC(=O)CCCN2C(=O)C(c3ccccc3)Oc3cccnc32)c1` (stereo unspecified) as the compound, how does the Potency read?
The Potency was inconclusive: 13.1 µM [inhibitor, single point].

With `Cc1ccc(/C(=N\O)c2oc3c(C)c4oc(=O)cc(C)c4cc3c2C)cc1` as the compound, how does the Potency read?
The Potency was active: 9.28 µM.

Which Potency does the source give for `CCOc1ccc(OCc2ccc(C(=O)NC(C)C)o2)cc1` here?
Its Potency is active: 11.7 µM.

Which Potency does the source give for `Cc1ccc2[nH]c3c(N4CCOCC4)ncnc3c2c1` here?
Its Potency is inconclusive: 1.04 µM [inhibitor, full curve, poor fit].

For `Cc1cc(C)cc(N(C(=O)c2csnn2)C(C(=O)NC2CCCCC2)c2ccncc2)c1` (stereo unspecified), which Potency is on record?
Its Potency is inconclusive: 0.928 µM [inhibitor, partial curve].

For `CC(C)CC(=O)Nc1ccc(N2CCN(C(=O)c3cccs3)CC2)cc1`, which Potency is on record?
Its Potency is inconclusive: 10.4 µM [inhibitor, partial curve].

For `CCNC(=O)/C=C1\NC(C)(C)Cc2c1ccc1ccccc21`, which Potency is on record?
The Potency was inconclusive: 13.1 µM [inhibitor, single point].

With `CC(C)CN1CCC(CN(C)Cc2nc(-c3cnccn3)no2)CC1` as the compound, how does the “activity change, negative = inhibition” value read?
The value was inactive: 9.69%.

For `Cc1ccc(-c2cc(C(F)F)n3ncc(C(=O)Nc4c(C)nn(Cc5ccccc5Cl)c4C)c3n2)cc1`, which Potency is on record?
The Potency was inconclusive: 2.33 µM [inhibitor, full curve, poor fit].

With `CCOc1ccc(CN2CCCC(CO)(Cc3ccc(F)cc3)C2)cc1` (stereo unspecified) as the compound, how does the Potency read?
Its Potency is inconclusive: 11.7 µM [inhibitor, single point].

For `Cc1ccc(CNC(=O)c2ccc(N3CCC4(CC3)CC(c3cccc(Br)c3)=NO4)c(NC(=O)c3ccco3)c2)cc1`, which Potency is on record?
Its Potency is active: 3.7 µM.

For `CCOC(=O)N1N=C(c2ccccc2)CC1(O)C(F)(F)F` (stereo unspecified), which “activity change, negative = inhibition” value is on record?
Its value is inactive: 150%.

With `C=CS(=O)c1sc(Cl)c(N2CCOCC2)c1[N+](=O)[O-]` (stereo unspecified) as the compound, how does the Potency read?
The Potency was inconclusive: 18.5 µM [inhibitor, single point].

For `CN(C[C@H](Cc1ccccc1)N(C[C@@H](Cc1cccc2ccccc12)N(CCc1ccccc1)N=O)N=O)N=O`, which Potency is on record?
Its Potency is inconclusive: 9.28 µM [inhibitor, partial curve, poor fit].

With `O=C(O)C1(c2ccccc2)CCN(S(=O)(=O)c2cccs2)CC1` as the compound, how does the Potency read?
The Potency was inconclusive: 0.233 µM [inhibitor, full curve, poor fit].

With `Cc1ccc(NC(=O)c2c(F)cccc2Cl)cc1S(=O)(=O)N1CCOCC1` as the compound, how does the Potency read?
Its Potency is inconclusive: 8.28 µM [inhibitor, partial curve].

Which Potency does the source give for `Cn1c(=O)c2c(nc(N3CCCCC3)n2CCNC2=NCCC2)n(C)c1=O` here?
The Potency was inconclusive: 1.17 µM [inhibitor, partial curve, poor fit].

For `COc1ccc(N2CCN(C(CNC(=O)c3cccs3)c3ccco3)CC2)cc1` (stereo unspecified), which “activity change, negative = inhibition” value is on record?
Its value is inactive: -0.596%.

With `COc1cc(=O)[nH]c(SC(C)C(=O)Nc2cccc3ccccc23)n1` (stereo unspecified) as the compound, how does the “activity change, negative = inhibition” value read?
Its value is inactive: 21.7%.

For `O=C(SCC(O)C(O)CS)c1cccs1` (stereo unspecified), which “activity change, negative = inhibition” value is on record?
Its value is inactive: -25%.

Which Potency does the source give for `CC(C)(C)NC(=O)NC(=O)CN1CCN(c2ccccc2O)CC1` here?
Its Potency is inconclusive: 10.4 µM [inhibitor, partial curve, poor fit].

Which Potency does the source give for `COc1ccc(Cl)cc1-c1n[nH]c(=S)n1Cc1ccccc1` here?
The Potency was inconclusive: 14.7 µM [inhibitor, single point].

Which Potency does the source give for `CC(=O)Nc1ccc(C(=O)OCC(=O)N(Cc2ccccc2)C(C)(C)C)cc1` here?
The Potency was inconclusive: 18.5 µM [inhibitor, single point].

For `O=C1[C@@H]2C(Cc3ccc(O)cc3)NC3(C(=O)Nc4ccc(F)cc43)[C@@H]2C(=O)N1c1ccccc1` (stereo partly specified), which Potency is on record?
The Potency was inconclusive: 16.5 µM [inhibitor, single point].

Which Potency does the source give for `Cc1ccc(SCc2c(C#N)c3ccccc3n2C)cc1` here?
Its Potency is inconclusive: 18.5 µM [inhibitor, single point].

For `CCOc1cc(/C=N/Nc2nc(N3CCCCC3)nc(N3CCCCC3)n2)ccc1OC(=O)c1ccco1`, which Potency is on record?
Its Potency is inconclusive: 18.5 µM [inhibitor, single point].

Which Potency does the source give for `CC(=O)c1ccc(OC(C)C(=O)OCC(=O)NCCc2ccccc2)cc1` (stereo unspecified) here?
The Potency was inconclusive: 11.7 µM [inhibitor, single point].

Which Potency does the source give for `CC(=O)c1cccc(NC(=O)c2ccccc2-c2ccccc2C(=O)O)c1` here?
Its Potency is inconclusive: 11.7 µM [inhibitor, partial curve].

With `COc1ccc(N(C)S(=O)(=O)c2cccc(C(=O)Nc3nc(C)cs3)c2)cc1` as the compound, how does the Potency read?
The Potency was inconclusive: 0.828 µM [inhibitor, full curve, poor fit].

With `CC1(C)CC(C)(c2ccc(O)cc2O)N(c2ccc3ccccc3c2)C(=S)N1` (stereo unspecified) as the compound, how does the Potency read?
Its Potency is inconclusive: 13.1 µM [inhibitor, partial curve, poor fit].

Which Potency does the source give for `CCn1c(SCC(=O)OC(C)C)nnc1-c1cccc(Cl)c1` here?
Its Potency is inconclusive: 0.294 µM [inhibitor, full curve, poor fit].

For `[O-][n+]1c2c(nc3c1-c1ccccc1C3O)CCCC2` (stereo unspecified), which “activity change, negative = inhibition” value is on record?
Its value is inactive: -4.64%.

Which “activity change, negative = inhibition” value does the source give for `COc1ccc(OC)c(CN(CCN2CCOCC2)C(=O)Nc2ccccc2)c1` here?
Its value is inactive: 39%.

For `CCOC(=O)/C(C#N)=C\N(C)C`, which “activity change, negative = inhibition” value is on record?
The value was inactive: 9.88%.

For `CCOc1ccc(Nc2nc(Cc3nnc(SCC(=O)N(CC)CC)n3C)cs2)cc1`, which Potency is on record?
Its Potency is inconclusive: 0.294 µM [inhibitor, partial curve, poor fit].

For `CC(=O)Nc1ccc(S(=O)(=O)NNC(=O)c2ccc([N+](=O)[O-])cc2)cc1`, which Potency is on record?
Its Potency is inconclusive: 18.5 µM [inhibitor, single point].

For `CCCCOC(=O)C1=C(C)NC2=C(C(=O)CCC2)C1c1cc(OC)ccc1OC` (stereo unspecified), which Potency is on record?
The Potency was active: 13.1 µM.

Which Potency does the source give for `CCOC(=O)N1CCN(C(=O)NC23CC4CC(CC(C4)C2)C3)CC1` here?
Its Potency is inconclusive: 16.5 µM [inhibitor, single point].

With `Clc1ccc(-n2nnnc2-c2cnc3ccccc3c2-c2ccccc2)cc1` as the compound, how does the Potency read?
The Potency was active: 10.4 µM.

Which Potency does the source give for `CC(=O)c1ccc(N2CCN(C(=O)CN3C(=O)NC4(CCCCC4)C3=O)CC2)c(F)c1` here?
Its Potency is inconclusive: 2.94 µM [inhibitor, partial curve, poor fit].

For `Cc1c(N=C2NC(=O)/C(=C/c3ccc(O)cc3)S2)c(=O)n(-c2ccccc2)n1C`, which “activity change, negative = inhibition” value is on record?
The value was inactive: -19.1%.

With `Cc1noc(C)c1COc1ccc(C(=O)OCC(=O)Nc2c(C)n(C)n(-c3ccccc3)c2=O)cc1` as the compound, how does the Potency read?
The Potency was inconclusive: 4.15 µM [inhibitor, single point].

For `Cc1cc(OC(F)F)ccc1NC(=S)NC1CCCC1`, which Potency is on record?
Its Potency is active: 13.1 µM.

For `COc1ccccc1N1CCN(C(=O)CSc2nc(C)c(C)c(=O)[nH]2)CC1`, which Potency is on record?
Its Potency is inconclusive: 0.828 µM [inhibitor, full curve, poor fit].

Which “activity change, negative = inhibition” value does the source give for `COC(=O)c1ccc(COC(=O)CNC(=O)c2cccc(OC)c2)o1` here?
Its value is inactive: 5.51%.

Which Potency does the source give for `C=CCn1c(SCC(=O)NC(=O)NCC(C)C)nnc1C1CCCCC1` here?
The Potency was inconclusive: 16.5 µM [inhibitor, single point].

With `CCOc1cccc(-c2c(C(=O)N/N=C/c3ccoc3)nnn2-c2nonc2N)c1` as the compound, how does the Potency read?
The Potency was inconclusive: 18.5 µM [inhibitor, single point].

For `COc1ccc(-n2ccnc(SCC(=O)NCc3ccc(C)cc3)c2=O)cc1Cl`, which Potency is on record?
Its Potency is inconclusive: 18.5 µM [inhibitor, single point].

Which Potency does the source give for `Cc1nn(Cc2ccccc2)c(C)c1NC(=O)c1ccc([N+](=O)[O-])cc1[N+](=O)[O-]` here?
Its Potency is inconclusive: 18.5 µM [inhibitor, single point].

With `COc1ccc(/C=C\C(=O)NCc2ccc3c(c2)cc(C)n3C)cc1OC` as the compound, how does the Potency read?
The Potency was inconclusive: 11.7 µM [inhibitor, single point].

Which Potency does the source give for `O=C(Nc1cccc(F)c1)c1cc(S(=O)(=O)NCCC2=CCCCC2)ccc1F` here?
Its Potency is inconclusive: 18.5 µM [inhibitor, single point].

For `COc1ccc(Nc2nc(C(=O)N3CCc4cc(OC)c(OC)cc4C3)cs2)cc1`, which Potency is on record?
Its Potency is inconclusive: 14.7 µM [inhibitor, partial curve, poor fit].

For `CC(=O)c1ccc(NC(=O)Nc2ccc(S(=O)(=O)N3CCCC3)cc2)cc1`, which Potency is on record?
The Potency was inconclusive: 9.28 µM [inhibitor, partial curve].

For `COc1cc2c(cc1OC)-c1cc(=Nc3c(C)cc(C)cc3C)n(C)c(=O)n1CC2`, which Potency is on record?
Its Potency is active: 0.757 µM.

Which Potency does the source give for `Clc1ccc2nc(C3CCN(Cc4ccccc4)CC3)[nH]c2c1` here?
Its Potency is inconclusive: 11.7 µM [inhibitor, partial curve, poor fit].

For `Cc1csc(=O)n1CC(=O)OCC(=O)Nc1ccc(Cl)cc1F`, which “activity change, negative = inhibition” value is on record?
The value was inactive: 20.3%.

For `Fc1cccc(CN2CCN(Cc3nc(CCc4ccccc4)no3)CC2)c1`, which Potency is on record?
The Potency was active: 10.4 µM.

With `Cc1cc(NC(=O)CSc2ccc(F)cc2)no1` as the compound, how does the “activity change, negative = inhibition” value read?
The value was inactive: -13%.

With `COC(=O)c1cnn(-c2ccc(F)cc2F)c1/C=N/NC(=S)NC(C)(C)C` as the compound, how does the Potency read?
Its Potency is inconclusive: 2.62 µM [inhibitor, single point].
